# According to the supplement of paper PMC4635364:
# Where a name gives a salt, the structure may show the parent alone. This is one part of the list. Single values are uncertain here, since repeats match poorly.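 Human fetal ventral-midbrain neural progenitor line ReNCell VM, differentiated without mitogens. Images stained for doublecortin (early neurons) or tyrosine hydroxylase (dopaminergic neurons) were scored by blinded raters against untreated wells (0 = no change). Repeats and both raters were averaged, and compounds averaging 2 or higher were picked as hits for retesting.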
# Experiments:
# ReNCell VM [1] = assay: neuronal differentiation score (DCX+ cell fraction vs untreated, manual image score) (score (-3 to 3)); higher = more neuronal differentiation; conditions: 2 uM, 2 weeks
# ReNCell VM [2] = assay: dopaminergic neuron differentiation score (TH+ cell fraction vs untreated, manual image score) (score (0 to 3)); higher = more TH+ dopaminergic neuron differentiation; conditions: 2 uM, 4 weeks, BDNF 10 ng/ml + GDNF 10 ng/ml
structure (smiles),measurement,setting,value
CN1[C@@H]2CC[C@H]1C[C@@H](OC(=O)c1c[nH]c3ccccc13)C2,neuronal differentiation score,ReNCell VM [1]; library: Spectrum,inactive: 0
same,dopaminergic neuron differentiation score,ReNCell VM [2]; library: Spectrum,inactive: 0
Nc1nnc(-c2cccc(Cl)c2Cl)c(N)n1,neuronal differentiation score,ReNCell VM [1]; library: Spectrum,inactive: 0
same,dopaminergic neuron differentiation score,ReNCell VM [2]; library: Spectrum,inactive: 0
COc1ccc([C@@H](C)C(=O)c2ccc(O)cc2O)cc1 [angolensin (r)],neuronal differentiation score,ReNCell VM [1]; library: Natural,inactive: 0
same,dopaminergic neuron differentiation score,ReNCell VM [2]; library: Natural,inactive: 0
C=CC(C1=CC(=O)C(OC)=CC1=O)c1ccc(O)cc1 (centres undefined),neuronal differentiation score,ReNCell VM [1]; library: Spectrum,inactive: 0
same,dopaminergic neuron differentiation score,ReNCell VM [2]; library: Spectrum,inactive: 0
NC(=O)C(c1ccccc1)(c1ccccc1)[C@@H]1CCN(CCc2ccc3c(c2)CCO3)C1 [Darifenacin hydrobromide],neuronal differentiation score,ReNCell VM [1]; library: Prestwick,inactive: 0
same,dopaminergic neuron differentiation score,ReNCell VM [2]; library: Prestwick,inactive: 0
O=C(O)CCCc1ccccc1 [sodium 4-Phenylbutyrate],neuronal differentiation score,ReNCell VM [1]; library: Tocriscreen,inactive: 0
same,dopaminergic neuron differentiation score,ReNCell VM [2]; library: Tocriscreen,inactive: 0
CO[C@H]1O[C@@H]2O[C@@]3(C)CC[C@H]4[C@H](C)CC[C@@H]([C@H]1C)[C@@]24OO3,neuronal differentiation score,ReNCell VM [1]; library: Spectrum,inactive: 0
same,dopaminergic neuron differentiation score,ReNCell VM [2]; library: Spectrum,inactive: 0
C=C1C[C@H]2[C@@H]3C=C(C)C4=CC(=O)CC[C@]4(C)[C@H]3CC[C@]2(C)[C@@]1(OC(C)=O)C(C)=O [Melengestrol acetate],neuronal differentiation score,ReNCell VM [1]; library: Prestwick,inactive: 0
same,dopaminergic neuron differentiation score,ReNCell VM [2]; library: Prestwick,inactive: 0
Nc1ccc(C(=O)NCC(=O)O)cc1,neuronal differentiation score,ReNCell VM [1]; library: Spectrum,inactive: 0
same,dopaminergic neuron differentiation score,ReNCell VM [2]; library: Spectrum,inactive: 0
C=C[C@@]1(C)CC(=O)[C@]2(O)[C@@]3(C)[C@@H](O)CCC(C)(C)[C@@H]3[C@H](O)[C@H](OC(C)=O)[C@@]2(C)O1 [forskolin],neuronal differentiation score,ReNCell VM [1]; library: Natural,inactive: 0
same,dopaminergic neuron differentiation score,ReNCell VM [2]; library: Natural,inactive: 0
O=C1c2cccc(O)c2C(=O)c2c(O)cccc21,neuronal differentiation score,ReNCell VM [1]; library: Spectrum,inactive: 0
same,dopaminergic neuron differentiation score,ReNCell VM [2]; library: Spectrum,inactive: 0
C[C@H](CCC(=O)O)[C@H]1CC[C@H]2[C@@H]3[C@H](O)C[C@@H]4C[C@H](O)CC[C@]4(C)[C@H]3CC[C@]12C [Chenodiol],neuronal differentiation score,ReNCell VM [1]; library: Prestwick,inactive: 0
same,dopaminergic neuron differentiation score,ReNCell VM [2]; library: Prestwick,inactive: 0
Cc1cc(C)c(N(Cc2ccccc2)S(=O)(=O)c2ccc(OCCNC(=O)c3cc4ccccc4o3)cc2)c(C(=O)NO)c1,neuronal differentiation score,ReNCell VM [1]; library: Tocriscreen,inactive: 0
same,dopaminergic neuron differentiation score,ReNCell VM [2]; library: Tocriscreen,inactive: 0
Cc1csc(-c2coc3cc(O[C@@H]4O[C@H](CO)[C@@H](O)[C@@H](O)[C@H]4O)ccc3c2=O)n1,neuronal differentiation score,ReNCell VM [1]; library: Natural,inactive: 0
same,dopaminergic neuron differentiation score,ReNCell VM [2]; library: Natural,inactive: 0
CCn1cc(C(=O)O)c(=O)c2cc(F)c(N3CCNCC3)cc21 [Norfloxacin],neuronal differentiation score,ReNCell VM [1]; library: Prestwick,inactive: 0
same,dopaminergic neuron differentiation score,ReNCell VM [2]; library: Prestwick,inactive: 0
COc1cc(CNC(=O)CCCC/C=C/C(C)C)ccc1O [(E)-Capsaicin],neuronal differentiation score,ReNCell VM [1]; library: Tocriscreen,inactive: 0
same,dopaminergic neuron differentiation score,ReNCell VM [2]; library: Tocriscreen,inactive: 0
CCCCCCCCCCCCCCCCOP(=O)([O-])OCC[N+](C)(C)C,neuronal differentiation score,ReNCell VM [1]; library: Spectrum,inactive: 0
same,dopaminergic neuron differentiation score,ReNCell VM [2]; library: Spectrum,inactive: 0
NCC[C@H](O)C(=O)N[C@@H]1C[C@H](N)[C@@H](O[C@H]2O[C@H](CN)[C@@H](O)[C@H](O)[C@H]2O)[C@H](O)[C@H]1O[C@H]1O[C@H](CO)[C@@H](O)[C@H](N)[C@H]1O,neuronal differentiation score,ReNCell VM [1]; library: Spectrum,inactive: 0
same,dopaminergic neuron differentiation score,ReNCell VM [2]; library: Spectrum,inactive: 1
CN(Cc1cc(Br)cc(Br)c1N)C1CCCCC1,neuronal differentiation score,ReNCell VM [1]; library: Spectrum,inactive: 0
same,dopaminergic neuron differentiation score,ReNCell VM [2]; library: Spectrum,inactive: 0
C[N+]1(CCCCC[N+]2(C)CCCC2)CCCC1 [Pentolinium di[L(+)-tartrate]],neuronal differentiation score,ReNCell VM [1]; library: LOPAC,inactive: 0
same,dopaminergic neuron differentiation score,ReNCell VM [2]; library: LOPAC,inactive: 0
Cc1cc(/C=C/c2ccc3cc(N(C)C)ccc3[n+]2C)c(C)n1-c1ccccc1,neuronal differentiation score,ReNCell VM [1]; library: Spectrum,inactive: 0
same,dopaminergic neuron differentiation score,ReNCell VM [2]; library: Spectrum,inactive: 0
Cc1cc(Cn2cnc3c2C[C@@H](C(=O)O)N(C(=O)C(c2ccccc2)c2ccccc2)C3)ccc1N,neuronal differentiation score,ReNCell VM [1]; library: LOPAC,inactive: 0
same,dopaminergic neuron differentiation score,ReNCell VM [2]; library: LOPAC,inactive: 0
COc1ccc2cc1Oc1ccc(cc1)C[C@H]1c3cc(c(OC)cc3CCN1C)Oc1c(OC)c(OC)cc3c1[C@H](C2)N(C)CC3,neuronal differentiation score,ReNCell VM [1]; library: Spectrum,inactive: 0
same,dopaminergic neuron differentiation score,ReNCell VM [2]; library: Spectrum,inactive: 0
O=C(Nc1ccncc1)c1cc([N+](=O)[O-])ccc1Cl,neuronal differentiation score,ReNCell VM [1]; library: Tocriscreen,inactive: 0
same,dopaminergic neuron differentiation score,ReNCell VM [2]; library: Tocriscreen,inactive: 0
COc1ccc(-c2cc(=O)c3c(O)c(OC)c(O[C@@H]4O[C@H](CO[C@@H]5O[C@@H](C)[C@H](O)[C@@H](O)[C@H]5O)[C@@H](O)[C@H](O)[C@H]4O)cc3o2)cc1,neuronal differentiation score,ReNCell VM [1]; library: Spectrum,inactive: 0
same,dopaminergic neuron differentiation score,ReNCell VM [2]; library: Spectrum,inactive: 0
C[C@H]1NC(=O)NC1=O [Methylhydantoin-5-(D)],neuronal differentiation score,ReNCell VM [1]; library: Prestwick,inactive: 0
same,dopaminergic neuron differentiation score,ReNCell VM [2]; library: Prestwick,inactive: 0
Cn1nnnc1SCC1=C(C(=O)O)N2C(=O)[C@@H](NC(=O)[C@H](O)c3ccccc3)[C@H]2SC1,neuronal differentiation score,ReNCell VM [1]; library: Spectrum,inactive: 1
same,dopaminergic neuron differentiation score,ReNCell VM [2]; library: Spectrum,inactive: 0

# Three entries picked at random from the list so far:
structure (smiles),measurement,setting,value
C=C[C@@]1(C)CC(=O)[C@]2(O)[C@@]3(C)[C@@H](O)CCC(C)(C)[C@@H]3[C@H](O)[C@H](OC(C)=O)[C@@]2(C)O1 [forskolin],neuronal differentiation score,ReNCell VM [1]; library: Natural,inactive: 0
Cn1nnnc1SCC1=C(C(=O)O)N2C(=O)[C@@H](NC(=O)[C@H](O)c3ccccc3)[C@H]2SC1,neuronal differentiation score,ReNCell VM [1]; library: Spectrum,inactive: 1
Cc1csc(-c2coc3cc(O[C@@H]4O[C@H](CO)[C@@H](O)[C@@H](O)[C@H]4O)ccc3c2=O)n1,neuronal differentiation score,ReNCell VM [1]; library: Natural,inactive: 0
